# PMC12624773, “Receptor activity–modifying protein 3 enhances GLP-1-mediated insulin secretion” (The Journal of Biological Chemistry, 2025)
# By UniProt entry, the sequences of proteins in these tests, tags left out. Residues count along the entry.
# UniProt Q16602, residues 23-461: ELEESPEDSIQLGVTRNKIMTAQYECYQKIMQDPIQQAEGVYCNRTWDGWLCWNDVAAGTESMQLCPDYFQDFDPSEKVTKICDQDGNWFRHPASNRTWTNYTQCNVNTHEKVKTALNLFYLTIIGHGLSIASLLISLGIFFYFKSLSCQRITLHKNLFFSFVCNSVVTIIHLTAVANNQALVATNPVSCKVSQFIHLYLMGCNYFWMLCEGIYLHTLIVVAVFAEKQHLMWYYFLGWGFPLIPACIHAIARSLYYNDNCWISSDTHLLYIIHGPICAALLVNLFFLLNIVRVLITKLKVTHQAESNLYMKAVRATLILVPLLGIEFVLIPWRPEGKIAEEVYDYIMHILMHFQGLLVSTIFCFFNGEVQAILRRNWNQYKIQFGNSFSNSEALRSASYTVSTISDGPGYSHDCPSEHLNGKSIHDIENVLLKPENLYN
# UniProt P32121: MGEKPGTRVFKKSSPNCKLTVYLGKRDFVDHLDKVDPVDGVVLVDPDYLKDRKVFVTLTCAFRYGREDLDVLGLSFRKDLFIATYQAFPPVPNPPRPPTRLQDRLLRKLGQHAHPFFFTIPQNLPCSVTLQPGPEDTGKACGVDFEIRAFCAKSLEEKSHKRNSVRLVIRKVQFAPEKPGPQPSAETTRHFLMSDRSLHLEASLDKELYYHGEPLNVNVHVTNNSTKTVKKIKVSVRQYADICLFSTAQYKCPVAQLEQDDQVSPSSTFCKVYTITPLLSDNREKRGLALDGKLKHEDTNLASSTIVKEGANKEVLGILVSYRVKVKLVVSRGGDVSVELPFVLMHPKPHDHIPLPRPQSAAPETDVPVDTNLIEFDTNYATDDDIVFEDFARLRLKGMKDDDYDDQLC
# UniProt P49407: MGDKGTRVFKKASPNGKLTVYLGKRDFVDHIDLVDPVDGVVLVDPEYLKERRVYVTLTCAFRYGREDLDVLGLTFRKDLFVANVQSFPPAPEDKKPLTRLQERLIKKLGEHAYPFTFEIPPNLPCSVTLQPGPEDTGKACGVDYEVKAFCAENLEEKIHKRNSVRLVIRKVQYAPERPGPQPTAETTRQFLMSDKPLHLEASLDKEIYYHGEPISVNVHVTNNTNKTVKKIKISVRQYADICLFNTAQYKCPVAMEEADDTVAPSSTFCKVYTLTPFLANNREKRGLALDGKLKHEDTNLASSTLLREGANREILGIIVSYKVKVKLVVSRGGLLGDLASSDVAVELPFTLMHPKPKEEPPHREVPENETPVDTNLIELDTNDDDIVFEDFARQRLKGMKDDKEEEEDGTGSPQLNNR
# No constants are given. Whether binding was seen depends on the method and setting. In cells and extracts the contact can be indirect. Some results given as binding are weak or reduced against the parent protein; the word gives no strength.
# T1: LgBiT-GLP-1R (human), P43220
# T1 chain: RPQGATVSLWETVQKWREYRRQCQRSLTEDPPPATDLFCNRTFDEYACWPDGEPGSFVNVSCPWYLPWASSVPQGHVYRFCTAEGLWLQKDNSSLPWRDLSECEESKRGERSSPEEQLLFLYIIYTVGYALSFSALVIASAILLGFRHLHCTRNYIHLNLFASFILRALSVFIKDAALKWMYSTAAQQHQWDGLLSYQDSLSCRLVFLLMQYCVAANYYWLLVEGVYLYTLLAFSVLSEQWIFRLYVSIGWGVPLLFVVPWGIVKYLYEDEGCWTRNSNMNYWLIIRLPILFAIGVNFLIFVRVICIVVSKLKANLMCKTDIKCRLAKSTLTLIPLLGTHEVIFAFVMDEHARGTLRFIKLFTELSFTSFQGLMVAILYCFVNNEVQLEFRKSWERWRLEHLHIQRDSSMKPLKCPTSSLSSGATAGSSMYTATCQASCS
# B1: SNAP-RAMP3 (protein, UniProt O60896 24-148)
# chain: RAGGCNETGMLERLPLCGKAFADMMGKVDVWKWCNLSEFIVYYESFTNCTEMEANVVGCYWPNPLAQGFITGIHRQFFSNCTVDRVHLEDPPDEVLIPLIVIPVVLTVAMAGLVVWRSKRTDTLL
# modifications: SNAP-Surface Alexa Fluor 488 conjugated to the SNAP tag
# B2: SmBiT-RAMP3 (protein, UniProt O60896 24-148)
# chain: B1 chain
# B3: SmBiT-RAMP1, O60894 27-148 (protein)
# chain: CQEANYGALLRELCLTQFQVDMEAVGETLWCDWGRTIRSYRELADCTWHMAEKLGCFWPNAEVDRFFLAVHGRYFRSCPISGRAVRDPPGSILYPFIVVPITVTLLVTALVVWQSKRTEGIV
# B4: SmBiT-RAMP2, O60895 43-175 (protein)
# chain: QPLPTTGTPGSEGGTVKNYETAVQFCWNHYKDQMDPIEKDWCDWAMISRPYSTLRDCLEHFAELFDLGFPNPLAERIIFETHQIHFANCSLVQPTFSDPPEDVLLAMIIAPICLIPFLITLVVWRSKDSEAQA
# How the values were obtained:
# GLP-1R–Nluc (human) [1] = target: GLP-1R–Nluc (human) (UniProt P43220); test: FRET or BRET; agonist-stimulated recruitment of β-arrestin–YFP to GLP-1R–Nluc in HEK293T cells, with pcDNA3.1 or FLAG-RAMP3 (1:5:2 ratio); KREBs with 0.1% BSA; read 1 h
# GLP-1R–Nluc (human) [2] = target: GLP-1R–Nluc (human) (UniProt P43220); test: FRET or BRET; recruitment of β-arrestin1/2–YFP to GLP-1R–Nluc in INS-1 832/3 cells without endogenous GLP-1R, with vector or RAMP3; KREBs-Ringer with 0.1% BSA, pH 7.4
# Nluc–GLP-1R = Nluc–GLP-1R (Homo sapiens, UniProt P43220); test: FRET or BRET; cell-surface NanoBRET in Cos7 cells: 50 ng Nluc-GPCR and increasing amounts of SNAP-RAMP, SNAP-RAMP labelled with cell-impermeable SNAP-Surface Alexa Fluor 488; KREBs with 0.1% BSA; ratio at 10 min
# Nluc–CLR = Nluc–CLR (UniProt Q16602); test: as above
# LgBiT-GLP-1R (human) = LgBiT-GLP-1R (human) (UniProt P43220); test: split reporter + FRET or BRET; LgBiT-GLP-1R and SmBiT-RAMP coexpressed in HEK293T cells; the complex is read by BRET from the complemented NanoBiT luciferase to bound Ex-4-Red
# [3] = target: T1, LgBiT-GLP-1R (human), P43220; test: as above; details: remark: other sources report otherwise
molecule,measurement,setting,value
β-arrestin2–YFP (from UniProt P32121 1-409),binding,GLP-1R–Nluc (human) [1],binds
same,binding,GLP-1R–Nluc (human) [2],binds
β-arrestin1–YFP (from UniProt P49407 1-418),binding,GLP-1R–Nluc (human) [1],binds
same,binding,GLP-1R–Nluc (human) [2],binds
B1,binding,Nluc–GLP-1R,binds
same,binding,Nluc–CLR,binds
B2,binding,LgBiT-GLP-1R (human),binds
B3,binding,[3],no binding
B4,binding,[3],no binding
